Assay [1] has as its target T1, AnkB_repeats_R1–9 (first nine ANK repeats of AnkB, residues 28–318, followed by the capping sequence 814–822) (human) (UniProt Q01484).
T1 sequence: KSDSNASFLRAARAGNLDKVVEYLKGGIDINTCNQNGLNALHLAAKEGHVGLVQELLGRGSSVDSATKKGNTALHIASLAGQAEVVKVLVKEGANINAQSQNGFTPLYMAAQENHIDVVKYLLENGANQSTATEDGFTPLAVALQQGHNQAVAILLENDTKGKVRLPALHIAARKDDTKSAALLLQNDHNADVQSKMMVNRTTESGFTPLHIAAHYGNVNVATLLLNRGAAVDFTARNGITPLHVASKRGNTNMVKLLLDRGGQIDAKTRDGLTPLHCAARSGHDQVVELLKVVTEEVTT
The assay can be described thus: crystal structure; Nav1.2_ABD-C fused in front of AnkB_repeats_R1–9 on one chain; 2.5 Å; 1.8 M ammonium sulfate, 6–8% dioxane, 0.1 M MES pH 6.5, 16°C; both purified.

Assay [2] addresses T2, AnkG_repeats (24 ANK repeats of rat 190 kDa ankyrin-G, residues 38–855) (rat) (UniProt O70511).
T2 sequence: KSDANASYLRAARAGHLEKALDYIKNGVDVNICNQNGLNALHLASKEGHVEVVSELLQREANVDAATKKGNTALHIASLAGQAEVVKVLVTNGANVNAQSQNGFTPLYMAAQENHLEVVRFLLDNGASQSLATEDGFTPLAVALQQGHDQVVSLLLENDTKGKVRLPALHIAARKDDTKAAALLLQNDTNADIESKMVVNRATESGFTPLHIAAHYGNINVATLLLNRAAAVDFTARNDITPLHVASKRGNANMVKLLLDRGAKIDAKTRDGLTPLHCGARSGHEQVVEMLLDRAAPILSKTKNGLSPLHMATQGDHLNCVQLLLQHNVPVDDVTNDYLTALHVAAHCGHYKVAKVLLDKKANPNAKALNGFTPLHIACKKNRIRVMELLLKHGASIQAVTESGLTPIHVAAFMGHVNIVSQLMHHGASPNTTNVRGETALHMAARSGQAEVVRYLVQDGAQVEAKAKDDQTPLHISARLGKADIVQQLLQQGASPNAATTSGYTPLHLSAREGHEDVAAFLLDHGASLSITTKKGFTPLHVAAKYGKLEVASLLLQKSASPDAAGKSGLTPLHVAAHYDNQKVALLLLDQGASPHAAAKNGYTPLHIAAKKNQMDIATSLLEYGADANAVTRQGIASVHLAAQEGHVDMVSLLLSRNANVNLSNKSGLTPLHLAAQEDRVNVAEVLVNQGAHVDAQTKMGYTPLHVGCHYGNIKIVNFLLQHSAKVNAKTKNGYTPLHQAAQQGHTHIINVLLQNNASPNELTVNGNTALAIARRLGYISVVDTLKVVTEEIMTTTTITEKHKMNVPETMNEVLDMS
The assay can be described thus: ITC; VP-ITC at 25°C; 50 mM Tris pH 7.5, 100 mM NaCl, 1 mM EDTA, 1 mM DTT; binding partner (AS, Nav1.2 ABD proteins, neurofascin ABD; 200–300 µM) in the syringe, ANK repeats (20–30 µM) in the cell; one-site binding model; both purified. (In general: Isothermal titration calorimetry measures the heat released or taken up as one component is titrated into another.)

The target of assay [3] is T2, AnkG_repeats (24 ANK repeats of rat 190 kDa ankyrin-G, residues 38–855) (rat). The assay can be described thus: SEC; analytical gel filtration, Superose 12 10/300 GL; 50 mM Tris pH 7.5, 100 mM NaCl, 1 mM EDTA, 1 mM DTT; AS fused to the N-terminus of AnkG_repeats mixed with Nav1.2 ABD or Nfasc ABD; both purified. A general note: In gel filtration, larger molecules generally elute earlier.

Results are given in words; binding and its absence hold for the method and conditions named. A result given as binding can be weak or reduced; the word gives no strength.

As to “Nav1.2_ABD-C (27-residue motif of loop 2, residues 1103–1129) (mouse) (domain or fragment)”, the binding result in assay [1] is recorded as “binds”.

On to “Nav1.2 ABD without the C-terminal less-conserved 10 residues of ABD-C (mouse) (domain or fragment)”, for which the binding result in assay [2] was “binds”.

Consider “Nav1.2_ABD (ankyrin binding domain of Nav1.2, residues 1035–1129) (mouse) (domain or fragment)”, for which the binding result in assay [3] is on record as “binds”.
